Assay results from patent publication US6833383B2, “Methods for treating patients suffering from drug dependencies which lead to plasma melatonin deficiencies” (Neurim Pharmaceuticals (1991) Ltd., priority 1995, dated 2004).

How the values were obtained:
melatonin receptors = assay: 2-125I-melatonin binding to crude synaptosomal pellets of brains of rats treated for 21 days; type: in vivo, rat; details: medulla-pons; 21 days treatment
Protocol: (§1) 20 male rats, maintained on a daily 14 hour light/10 hour darkness schedule, were divided into 4 groups, each consisting of 5 members:
(§2) Group 1 (the control group): rats were injected daily with 200 μl saline intraperitoneally for 21 days and were allowed to drink tap water.
(§3) They also were provided with regular tap water.
(§4) Group 3 (the melatonin group): rats were injected daily with 200 μl saline intraperitoneally. Their only available drinking water contained 0.4% by weight melatonin.
(§5) Each group was allowed food and water ad libitum. After 21 days the treatment was stopped. The animals were decapitated between 6:00 and 7:00 p.m. the next day, their brains were rapidly removed and crude synaptosomal pellets were prepared, and melatonin receptors were assessed using 2-^125I-melatonin, as described by Laudon, M., and N. Zisapel, FEBS Lett. 197:9 (1986). Benzodiazepine receptors were assessed by measuring the binding of radioactive benzodiazepine receptor probes ^3H-flunitrazepam (^3H-FNZ) and ^3H-RO 15-1788 as described by Amiri, Z. et al. Brain Res. 553:155 (1991). Binding parameters were calculated from the equilibrium binding data. […] Binding parameters of the various groups were compared by analysis of variance followed by Student-Newman-Keul's test for multiple comparison. Differences were considered significant if P<0.05.

Benzodiazepine receptors = assay: 3H-flunitrazepam and 3H-RO 15-1788 binding to crude synaptosomal pellets of brains of rats treated for 21 days; type: in vivo, rat; details: medulla-pons; 21 days treatment
Protocol: as §1, §2, §3, §4, §5

CN1C(=O)CN=C(c2ccccc2)c2cc(Cl)ccc21 [diazepam]
mean density of iodinated melatonin binding sites, lower than the control value (melatonin receptors): 35% | density or apparent affinity of RO-1788 binding compared with the control group (Benzodiazepine receptors): did not alter
